Results reported in PubChem BioAssay AID342 (DTP/NCI, 2004).
The list is a part of this screen's results and no random one: it is rich in T/C values a quarter to a half above the control, in often repeated tests (any T/C) and in doses without a T/C. Further doses and runs are listed elsewhere. T/C is the treated group as % of the vehicle group. Schedules are NCI's codes, read here as Q, the interval in days (D) or hours (H), X, the number of doses. Some schedules carry Z or #; the key to these is not given. Some T/C values carry the count of animals alive at the toxicity check (mostly the fifth day); without a count, all were alive then. Some doses have a count of surviving animals in place of a T/C: the source holds a T/C of zero for them, seemingly a mark for toxic or unscored doses. Counts of survivors are from the toxicity check (mostly the fifth day) where no day follows; animals may have died later. Some doses were run more than once; the results are listed from low to high.

Test system: Swiss mice, Sarcoma 180 sc, mean tumor weight T/C
Assay: NCI In Vivo Anticancer Drug Screen. Data for tumor model Sarcoma 180 (subcutaneous) in Swiss mice
Conditions: T/C endpoint: mean tumor weight, higher T/C = larger tumour; for T/C: evaluated on day 8
Procedure, shortened: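 Transplantable tumors were established in mice, compound was given, then survival or tumor size was recorded. The treated value was divided by the vehicle-control value.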

[1] = dose: 400.0 mg/kg/injection, schedule: Q01DX007 (ip), vehicle: other
[2] = dose: 375.0 mg/kg/injection, schedule: Q#A X014 (ip), vehicle: saline

Structure (SMILES): CCN(CC)CCOC(=O)c1ccc(N)cc1
- survivor count (dose: 150.0 mg/kg/injection, schedule: Q#A X014 (ip), vehicle: saline): 0 of 7
- survivor count (dose: 300.0 mg/kg/injection, schedule: Q#A X014 (ip), vehicle: saline): 0 of 7

Structure (SMILES): CCCCCC[C@@H](O)C/C=C\CCCCCCCC(=O)O
- survivor count (dose: 250.0 mg/kg/injection, schedule: Q01DX007 (ip), vehicle: saline): 0 of 6

Structure (SMILES): COc1cc2c(c(OC3OC(CO)C(O)C(O)C3O)c1)C(=O)CC(c1ccc(O)cc1)O2 (stereo unspecified)
- survivor count [1]: 0 of 6

Structure (SMILES): COC(=O)c1[nH]c(=O)[nH]c(=O)c1F
- survivor count (dose: 70.0 mg/kg/injection, schedule: Q01DX007 (ip), vehicle: carboxymethylcellulose (CMC)): 3 of 6

Structure (SMILES): O=c1[nH]c(=O)c2n[nH]nc2[nH]1
- T/C (dose: 1.0 mg/kg/injection, schedule: Q#A X014 (ip), vehicle: carboxymethylcellulose (CMC)): 127 % of control [5 of 6 alive]
- T/C (dose: 4.0 mg/kg/injection, schedule: Q#A X014 (ip), vehicle: carboxymethylcellulose (CMC)): 139 % of control

Structure (SMILES): Cc1ccc(N=NN(C)C)cc1
- survivor count (dose: 112.0 mg/kg/injection, schedule: Q01DX007 (ip), vehicle: carboxymethylcellulose (CMC)): 3 of 6

Structure (SMILES): O=CNc1c(Cl)c(Cl)c2c(c1Cl)Cc1cc(Cl)ccc1-2
- survivor count (dose: 60.0 mg/kg/injection, schedule: Q01DX007 (ip), vehicle: carboxymethylcellulose (CMC)): 2 of 6
- survivor count (dose: 110.0 mg/kg/injection, schedule: Q01DX007 (ip), vehicle: carboxymethylcellulose (CMC)): 2 of 6
- survivor count (dose: 250.0 mg/kg/injection, schedule: Q01DX007 (ip), vehicle: carboxymethylcellulose (CMC)): 3 of 6
- survivor count (dose: 375.0 mg/kg/injection, schedule: Q01DX007 (ip), vehicle: carboxymethylcellulose (CMC)): 1 of 6

Structure (SMILES): COc1cc2c3c(c4ccc(OC)c(OC)c4c2cc1OC)CN1CCC[C@@H]1C3
- survivor count (dose: 18.0 mg/kg/injection, schedule: Q01DX007 (ip), vehicle: water): 1 of 6

Structure (SMILES): CCCCCCCCCCC(O)CN1CCN(c2ccc(C)cc2)CC1 (stereo unspecified)
- survivor count (dose: 375.0 mg/kg/injection, schedule: Q01DX007 (ip), vehicle: olive oil, sesame oil, peanut oil): 3 of 6

Structure (SMILES): O=P(N1CCCC1)(N1CC1)N1CC1
- T/C (dose: 0.85 mg/kg/injection, schedule: Q#A X014 (ip), vehicle: carboxymethylcellulose (CMC)): 128 % of control
- survivor count (dose: 2.0 mg/kg/injection, schedule: Q#A X014 (ip), vehicle: saline): 1 of 6
- survivor count (dose: 16.0 mg/kg/injection, schedule: Q01DX007 (ip), vehicle: carboxymethylcellulose (CMC)): 3 of 6

Structure (SMILES): CCC(=O)NC
- survivor count (dose: 1500.0 mg/kg/injection, schedule: Q01DX007 (ip), vehicle: other): 2 of 6

Structure (SMILES): O=[N+]([O-])c1ccc2c(N=Nc3c(O)ccc4ccccc34)c(O)cc(S(=O)(=O)O)c2c1
- survivor count (dose: 330.0 mg/kg/injection, schedule: Q01DX007 (ip), vehicle: saline): 3 of 6
- survivor count (dose: 500.0 mg/kg/injection, schedule: Q01DX007 (ip), vehicle: saline): 0 of 6 and 3 of 6
- survivor count (dose: 750.0 mg/kg/injection, schedule: Q01DX007 (ip), vehicle: saline): 0 of 6

Structure (SMILES): CCN(CC)c1ccc(/C=C/c2ccnc3ccccc23)cc1
- survivor count (dose: 15.5 mg/kg/injection, schedule: Q01DX007 (ip), vehicle: carboxymethylcellulose (CMC)): 5 of 10
- survivor count (dose: 15.5 mg/kg/injection, schedule: Q01DX007 (ip), vehicle: other): 1 of 10
- survivor count (dose: 49.25 mg/kg/injection, schedule: Q01DX007 (ip), vehicle: carboxymethylcellulose (CMC)): 5 of 10

Structure (SMILES): COC1C(OC(=O)/C=C/C=C/C=C/C=C/C(=O)O)CCC2(CO2)C1C1(C)OC1CC=C(C)C (stereo unspecified)
- survivor count (dose: 400.0 mg/kg/injection, schedule: Q01DX007 (ip), vehicle: carboxymethylcellulose (CMC)): 0 of 6
- survivor count (dose: 600.0 mg/kg/injection, schedule: Q01DX007 (ip), vehicle: carboxymethylcellulose (CMC)): 0 of 6

Structure (SMILES): Cc1ncc(CO)c(CNC(=O)N(C)N=O)c1O
- survivor count (dose: 125.0 mg/kg/injection, schedule: Q01DX007 (ip), vehicle: carboxymethylcellulose (CMC)): 1 of 6

Structure (SMILES): COC(=O)C1=COC(C)C2CN3CCc4c([nH]c5cc(OC)ccc45)C3CC12 (stereo unspecified)
- survivor count [1]: 2 of 6

Structure (SMILES): [N-]=[N+]=CC(=O)NCC(=O)NN
- survivor count (dose: 750.0 mg/kg/injection, schedule: Q01DX007 (ip), vehicle: other): 3 of 6
- survivor count (dose: 800.0 mg/kg/injection, schedule: Q01DX007 (ip), vehicle: water): 3 of 6
- survivor count (dose: 900.0 mg/kg/injection, schedule: Q01DX007 (ip), vehicle: other): 2 of 6

Structure (SMILES): CCCCCCCCCCCCCC1=C(O)C(=O)C(CC2=C(O)C(=O)C(CCCCCCCCCCCCC)=C(O)C2=O)=C(O)C1=O
- T/C (dose: 12.5 mg/kg/injection, schedule: Q01DX007 (ip), vehicle: carboxymethylcellulose (CMC)): 129 % of control

Structure (SMILES): Nc1c(Br)cc2c(c1Br)Cc1cc(Cl)ccc1-2
- survivor count (dose: 93.0 mg/kg/injection, schedule: Q01DX007 (ip), vehicle: other): 3 of 6

Structure (SMILES): O=C(Nc1ccc(C2=NCCN2)cc1)c1ccc(C(=O)Nc2ccc(C3=NCCN3)cc2)c(Cl)c1
- T/C (dose: 10.0 mg/kg/injection, schedule: Q01DX007 (ip), vehicle: water): 131 % of control

Structure (SMILES): CC1CN1P(=O)(N1CCCC1)N1CC1C (stereo unspecified)
- survivor count (dose: 23.5 mg/kg/injection, schedule: Q#A X014 (ip), vehicle: saline): 3 of 6
- survivor count (dose: 105.0 mg/kg/injection, schedule: Q01DX007 (ip), vehicle: saline): 1 of 6

Structure (SMILES): O=C(N/N=C/C=C/c1ccccc1)[C@H](O)[C@@H](O)C(=O)N/N=C/C=C/c1ccccc1
- survivor count [2]: 3 of 6

Structure (SMILES): CO[C@H]1CC[C@@]2(C)C(=CC[C@H]3[C@@H]4C[C@H](O)[C@H](OC)[C@@]4(C)CC[C@@H]32)C1
- T/C (dose: 1.25 mg/kg/injection, schedule: Q#A X014 (sc), vehicle: steroid suspending solution): 131 % of control
- survivor count (dose: 250.0 mg/kg/injection, schedule: Q#A X014 (sc), vehicle: steroid suspending solution): 3 of 6

Structure (SMILES): CC(=O)[C@H]1CC[C@H]2[C@@H]3C[C@H](F)C4=CC(=O)CC[C@]4(C)[C@@]3(F)[C@@H](O)C[C@]12C
- survivor count (dose: 282.0 mg/kg/injection, schedule: Q01DX007 (sc), vehicle: steroid suspending solution): 1 of 6
- survivor count (dose: 376.0 mg/kg/injection, schedule: Q01DX007 (sc), vehicle: steroid suspending solution): 2 of 6

Structure (SMILES): CC(O)C(NCNC(=O)C1=C(O)C2(O)C(=O)C3=C(O)c4c(O)cccc4C(C)(O)C3CC2C(N(C)C)C1=O)C(=O)O (stereo unspecified)
- survivor count [2]: 1 of 7

Structure (SMILES): C[C@]12CC[C@H](O)C[C@H]1CC[C@@H]1[C@@H]2CC[C@]2(C)[C@@H](C3=CC(=O)OC3)CC[C@]12O
- survivor count (dose: 50.0 mg/kg/injection, schedule: Q01DX007 (ip), vehicle: carboxymethylcellulose (CMC)): 3 of 6

Structure (SMILES): CCN(CC)CCNc1ccc(C)c2sc3ccccc3c(=O)c12
- survivor count (dose: 100.0 mg/kg/injection, schedule: Q#A X014 (ip), vehicle: carboxymethylcellulose (CMC)): 1 of 6

Structure (SMILES): c1ccn(-c2nc(-n3cccc3)nc(-n3cccc3)n2)c1
- survivor count (dose: 250.0 mg/kg/injection, schedule: Q#A X014 (ip), vehicle: carboxymethylcellulose (CMC)): 3 of 6

Structure (SMILES): CCOC(=O)c1c(C#N)c(Cl)nc(C)c1[N+](=O)[O-]
- survivor count (dose: 12.5 mg/kg/injection, schedule: Q#A X014 (ip), vehicle: carboxymethylcellulose (CMC)): 1 of 6

Structure (SMILES): O=[N+]([O-])c1ccc(/C=N\Nc2ccc([N+](=O)[O-])cn2)cc1
- survivor count (dose: 18.0 mg/kg/injection, schedule: Q#A X014 (ip), vehicle: methylcellulose (MC)): 2 of 6
- survivor count (dose: 27.0 mg/kg/injection, schedule: Q#A X014 (ip), vehicle: methylcellulose (MC)): 1 of 6

Structure (SMILES): CC(=O)Nc1cc2c(cc1Br)-c1ccccc1C2O (stereo unspecified)
- survivor count (dose: 296.0 mg/kg/injection, schedule: Q01DX007 (ip), vehicle: saline): 1 of 6

Structure (SMILES): CC(=O)[C@@]1(O)CC[C@H]2[C@@H]3C[C@H](C)C4=CC(=O)C=C[C@]4(C)[C@@]3(F)[C@@H](O)C[C@@]21C
- T/C (dose: 13.8 mg/kg/injection, schedule: Q01DX007 (sc), vehicle: steroid suspending solution): 138 % of control
- survivor count (dose: 27.5 mg/kg/injection, schedule: Q#A X014 (sc), vehicle: steroid suspending solution): 1 of 7
- survivor count (dose: 41.5 mg/kg/injection, schedule: Q#A X014 (sc), vehicle: steroid suspending solution): 1 of 7
- survivor count (dose: 62.5 mg/kg/injection, schedule: Q#A X014 (sc), vehicle: steroid suspending solution): 3 of 7
- survivor count (dose: 125.0 mg/kg/injection, schedule: Q01DX007 (sc), vehicle: steroid suspending solution): 2 of 6
- survivor count (dose: 187.5 mg/kg/injection, schedule: Q01DX007 (sc), vehicle: steroid suspending solution): 3 of 6
- survivor count (dose: 2000.0 mg/kg/injection, schedule: Q01DX007 (sc), vehicle: steroid suspending solution): 4 of 7
